Test results published in PubChem BioAssay AID248 (DTP/NCI, 2004).
The list is a part of this screen's results and no random one: it gathers tests that were run many times, whatever their T/C, doses with no T/C, and many T/C values between a quarter and a half above the control. Other doses and runs of a compound stand elsewhere. T/C gives the treated animals as a percentage of the vehicle group. Some entries give survivors of the animals treated and no T/C: the source files T/C as zero there, which appears to mark a toxic dose or a test without result, not a measured value. Some survivor counts are full or nearly so, which does not show that the dose was tolerated: survival well below the control is almost never listed, so the zero probably covers shortened survival too. Counts of survivors are from the toxicity check (mostly the fifth day) where no day follows; animals may have died later. Schedule codes are those of the source, read here as Q, the interval in days (D) or hours (H), X, the number of doses.

System: L1210 leukemia ip in BDF1 mice, survival T/C
Experiment: NCI In Vivo Anticancer Drug Screen. Data for tumor model L1210 Leukemia (intraperitoneal) in B6D2F1 (BDF1) mice
Conditions: T/C endpoint: mean survival time, vehicle: Klucel (hydroxypropylcellulose) (HPC), higher T/C = longer survival

For `CC(C)(C)C1CCC(NC(=O)C(Cl)(Cl)Cl)CC1` (centres undefined), the survivor count (dose: 100.0 mg/kg/injection, schedule: Q01DX009 (ip)) was 2 of 6, the survivor count (dose: 100.0 mg/kg/injection, schedule: Q04DX003 (ip)) was 6 of 6 and the survivor count (dose: 200.0 mg/kg/injection, schedule: Q04DX003 (ip)) was 0 of 6. For the same molecule, the survivor count (dose: 400.0 mg/kg/injection, schedule: Q04DX003 (ip)) was 0 of 6.
